Source: PubChem BioAssay AID1259405 (NCATS, 2018)
In all, the deposit lists about 50,000 reagents; below is a part drawn at random. About 4,000 of all reagents (8%) were called active. 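Mouse siRNA library applied to hamster cells; one well for each siRNA.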 Unmarked entries are inactive. Reagents against one gene are numbered here.

Assay: 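Silenced genes that increase secreted GFP made by CHO cells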 (primary screen)
System: Chinese hamster CHO-K1 ovary cells with stable secreted eGFP expression
Reagents: single siRNA against mouse genes, 0.8 pmol siRNA per well (2 µl of 400 nM stock)
Time to read-out: 3 days
Read-out: 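Percent of the per-plate non-targeting control median for intracellular GFP per well by laser scanning cytometry and for cell viability by ATP luminescence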
Reading the numbers: GFP, % of control: higher = more GFP per well, higher productivity; viability (ATP), % of control: higher = more viable cells (more ATP)
Rule for the call: 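Called active when intracellular GFP, relative to negative control, is at or above 120%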

Wfdc1 #1: GFP, % of control = 107; viability (ATP), % of control = 112
Wfdc1 #2: GFP, % of control = 63.4; viability (ATP), % of control = 67.2
Wfdc1 #3: GFP, % of control = 55.9; viability (ATP), % of control = 74.7
Pcp2 #1: GFP, % of control = 72.9; viability (ATP), % of control = 43.7
Pcp2 #2: GFP, % of control = 68.9; viability (ATP), % of control = 53.2
Pcp2 #3: GFP, % of control = 90.1; viability (ATP), % of control = 86.2
Pgm2 #1: GFP, % of control = 100; viability (ATP), % of control = 94.6
Pgm2 #2: GFP, % of control = 61.7; viability (ATP), % of control = 62.7
Pgm2 #3: GFP, % of control = 88.1; viability (ATP), % of control = 106
Gtsf1l #1: GFP, % of control = 95.8; viability (ATP), % of control = 68.5
Gtsf1l #2: GFP, % of control = 88.9; viability (ATP), % of control = 88
Gtsf1l #3: GFP, % of control = 81.6; viability (ATP), % of control = 65.5
Dmgdh #1: GFP, % of control = 70.5; viability (ATP), % of control = 77.9
Dmgdh #2: GFP, % of control = 83.9; viability (ATP), % of control = 75.8
Dmgdh #3: GFP, % of control = 77.7; viability (ATP), % of control = 86.6
Psmd12 #1: GFP, % of control = 33; viability (ATP), % of control = 15.6
Psmd12 #2: GFP, % of control = 63.2; viability (ATP), % of control = 41.9
Psmd12 #3: GFP, % of control = 33.3; viability (ATP), % of control = 17.2
Tcaf3 #1: GFP, % of control = 89; viability (ATP), % of control = 82.7
Tcaf3 #2: GFP, % of control = 98.8; viability (ATP), % of control = 90.8
Tcaf3 #3: GFP, % of control = 79.3; viability (ATP), % of control = 68.9
Pmepa1 #1: GFP, % of control = 125 (active); viability (ATP), % of control = 47.1
Pmepa1 #2: GFP, % of control = 96.4; viability (ATP), % of control = 115
Pmepa1 #3: GFP, % of control = 163 (active); viability (ATP), % of control = 144
Cdk5rap3 #1: GFP, % of control = 66.9; viability (ATP), % of control = 90.2
Cdk5rap3 #2: GFP, % of control = 98; viability (ATP), % of control = 83.2
Cdk5rap3 #3: GFP, % of control = 78.7; viability (ATP), % of control = 80.1
Acot10 #1: GFP, % of control = 71.1; viability (ATP), % of control = 81.9
Acot10 #2: GFP, % of control = 87.1; viability (ATP), % of control = 97.5
Acot10 #3: GFP, % of control = 51.3; viability (ATP), % of control = 61.6
Rhox11 #1: GFP, % of control = 73.3; viability (ATP), % of control = 53.5
Rhox11 #2: GFP, % of control = 127 (active); viability (ATP), % of control = 110
Rhox11 #3: GFP, % of control = 23.1; viability (ATP), % of control = 37.8
Kcnk18 #1: GFP, % of control = 81.5; viability (ATP), % of control = 62.2
Kcnk18 #2: GFP, % of control = 98.6; viability (ATP), % of control = 78.6
Kcnk18 #3: GFP, % of control = 94.8; viability (ATP), % of control = 67.4
Zcchc13 #1: GFP, % of control = 25.5; viability (ATP), % of control = 66.1
Zcchc13 #2: GFP, % of control = 83.9; viability (ATP), % of control = 81.2
Zcchc13 #3: GFP, % of control = 44.9; viability (ATP), % of control = 52.1
Upf3b #1: GFP, % of control = 61.8; viability (ATP), % of control = 60.9
Upf3b #2: GFP, % of control = 61.7; viability (ATP), % of control = 67.3
Upf3b #3: GFP, % of control = 79.8; viability (ATP), % of control = 101
